The target of experiment [1] is Drp1-HA (Drosophila Drp1 with 3xHA tag) (Drosophila) (UniProt Q9VQE0). Nature of the experiment: co-IP; S2 cells transfected with Drp1-HA and ROCK-Fg; lysates incubated with anti-HA antibody overnight at 4°C, protein A/G agarose beads; immunoblot with anti-Fg.
Experiment [2] addresses ROCK-Fg (Drosophila Rho kinase with 3xFg tag) (Drosophila) (UniProt Q9VXE3). The experiment in a line: co-IP; S2 cells transfected with ROCK-Fg; co-IP performed using the newly generated antibody against Drosophila Drp1; endogenous Drp1.

The chains behind the UniProt entries cited, without tags or fusion partners.
UniProt Q9VQE0: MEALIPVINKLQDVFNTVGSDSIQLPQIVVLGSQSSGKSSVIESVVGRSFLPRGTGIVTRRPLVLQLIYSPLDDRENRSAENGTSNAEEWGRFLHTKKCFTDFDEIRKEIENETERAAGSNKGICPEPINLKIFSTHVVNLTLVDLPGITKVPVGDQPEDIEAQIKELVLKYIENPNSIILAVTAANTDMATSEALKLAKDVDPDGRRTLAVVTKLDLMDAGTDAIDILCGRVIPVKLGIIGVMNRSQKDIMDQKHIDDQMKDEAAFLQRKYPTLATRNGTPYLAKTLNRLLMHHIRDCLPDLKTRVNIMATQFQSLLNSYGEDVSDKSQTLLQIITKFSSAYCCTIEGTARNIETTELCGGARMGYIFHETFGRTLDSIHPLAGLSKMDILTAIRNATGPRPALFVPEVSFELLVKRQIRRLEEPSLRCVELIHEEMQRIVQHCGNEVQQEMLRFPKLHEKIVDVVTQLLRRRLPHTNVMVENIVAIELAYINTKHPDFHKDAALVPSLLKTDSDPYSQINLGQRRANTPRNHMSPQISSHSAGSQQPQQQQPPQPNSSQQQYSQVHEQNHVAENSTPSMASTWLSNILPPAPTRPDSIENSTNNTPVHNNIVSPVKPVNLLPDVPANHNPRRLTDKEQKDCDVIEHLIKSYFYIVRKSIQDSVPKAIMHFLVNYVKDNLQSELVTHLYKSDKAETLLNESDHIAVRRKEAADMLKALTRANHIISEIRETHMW
UniProt Q9VXE3: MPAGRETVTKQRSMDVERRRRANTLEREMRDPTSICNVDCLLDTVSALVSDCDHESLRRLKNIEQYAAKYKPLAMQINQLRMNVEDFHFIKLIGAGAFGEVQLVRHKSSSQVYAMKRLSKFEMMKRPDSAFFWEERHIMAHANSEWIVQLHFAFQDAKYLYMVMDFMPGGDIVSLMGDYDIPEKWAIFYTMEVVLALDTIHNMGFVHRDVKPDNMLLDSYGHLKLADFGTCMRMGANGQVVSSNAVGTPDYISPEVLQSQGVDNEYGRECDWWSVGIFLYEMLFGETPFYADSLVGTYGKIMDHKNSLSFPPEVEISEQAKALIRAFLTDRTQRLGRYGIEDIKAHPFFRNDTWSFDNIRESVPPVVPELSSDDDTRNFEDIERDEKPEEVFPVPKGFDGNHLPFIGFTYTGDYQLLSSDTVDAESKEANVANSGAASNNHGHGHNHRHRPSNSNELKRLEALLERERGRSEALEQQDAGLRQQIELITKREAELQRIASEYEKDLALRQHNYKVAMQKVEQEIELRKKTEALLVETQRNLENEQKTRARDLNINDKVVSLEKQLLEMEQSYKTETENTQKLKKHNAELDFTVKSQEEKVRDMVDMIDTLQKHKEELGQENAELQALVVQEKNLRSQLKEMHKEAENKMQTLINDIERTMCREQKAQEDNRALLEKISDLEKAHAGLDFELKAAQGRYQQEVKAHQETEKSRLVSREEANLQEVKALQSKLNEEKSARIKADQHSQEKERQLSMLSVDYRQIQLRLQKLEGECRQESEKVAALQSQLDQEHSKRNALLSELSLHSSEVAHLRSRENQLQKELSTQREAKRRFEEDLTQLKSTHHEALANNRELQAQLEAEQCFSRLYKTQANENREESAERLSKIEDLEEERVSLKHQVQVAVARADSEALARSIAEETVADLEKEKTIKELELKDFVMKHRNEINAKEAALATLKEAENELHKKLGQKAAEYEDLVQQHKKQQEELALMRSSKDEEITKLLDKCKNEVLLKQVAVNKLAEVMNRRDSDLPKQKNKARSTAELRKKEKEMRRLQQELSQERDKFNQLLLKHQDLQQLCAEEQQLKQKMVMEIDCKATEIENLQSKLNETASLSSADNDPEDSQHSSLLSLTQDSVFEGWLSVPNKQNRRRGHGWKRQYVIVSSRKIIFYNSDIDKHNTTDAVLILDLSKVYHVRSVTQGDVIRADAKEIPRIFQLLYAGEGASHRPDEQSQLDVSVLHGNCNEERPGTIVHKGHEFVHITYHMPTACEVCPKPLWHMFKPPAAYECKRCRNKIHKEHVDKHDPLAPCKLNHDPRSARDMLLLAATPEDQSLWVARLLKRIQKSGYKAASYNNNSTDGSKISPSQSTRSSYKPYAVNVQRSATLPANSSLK

The values below come from publication PMC9194559.

Results are given in words; binding and its absence hold for the method and conditions named. In cells and extracts the contact can be indirect. Some results given as binding are weak or reduced against the parent protein; the word gives no strength.

For “ROCK-Fg (Drosophila Rho kinase with 3xFg tag) (from UniProt Q9VXE3 1-1390) (enzyme)”, the binding entry in experiment [1] is “binds”.

In the case of “endogenous Drp1 (Drosophila dynamin-related protein 1) in S2 cells (from UniProt Q9VQE0 1-735)”, in experiment [2], the binding result is recorded as “binds”.
